For 1 molecule, binding results are on record in patent US20210206880A1.

Sequences of proteins named here, by UniProt entry; tags and fusion partners are left off. Residues count along the entry.
UniProt Q16620, residues 32-430: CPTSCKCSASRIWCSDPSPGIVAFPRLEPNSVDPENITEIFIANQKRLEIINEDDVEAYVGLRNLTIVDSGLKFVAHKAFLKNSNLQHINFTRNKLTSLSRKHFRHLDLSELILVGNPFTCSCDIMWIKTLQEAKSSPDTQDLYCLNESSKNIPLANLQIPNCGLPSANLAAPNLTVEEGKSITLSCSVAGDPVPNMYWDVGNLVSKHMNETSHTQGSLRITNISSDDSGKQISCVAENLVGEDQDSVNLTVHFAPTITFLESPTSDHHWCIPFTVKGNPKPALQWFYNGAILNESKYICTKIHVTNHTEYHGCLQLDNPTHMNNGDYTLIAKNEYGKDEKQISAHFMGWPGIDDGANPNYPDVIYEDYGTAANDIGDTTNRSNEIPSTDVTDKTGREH

These are yes or no findings as the source states them, for the method shown. Some binding calls cover weakened binding; strength is not graded here.

This assay addresses tropomyosin-related kinase receptor B (TrkB) (UniProt Q16620). Kind of assay: X-ray crystallography of the ternary complex.

B1: MbNb22^cYgjkE2 (designed binder)
chain: QVQLVESGGGLVYKEETQSGLNNYARVVEKGQYDSLEIPAQVAASWESGRDDAAVFGFIDKEQLDKYVANGGKRSDWTVKFAENRSQDGTLLGYSLLQESVDQASYMYSDNHYLAEMATILGKPEEAKRYRQLAQQLADYINTCMFDPTTQFYYDVRIEDKPLANGCAGKPIVERGKGPEGWSPLFNGAATQANADAVVKVMLDPKEFNTFVPLGTAALTNPAFGADIYWRGRVWVDQFWFGLKGMERYGYRDDALKLADTFFRHAKGLTADGPIQENYNPLTGAQQGAPNFSWSAAHLYMLYNDFFRKQASGGGSGGGGSGGGGSGNADNYKNVINRTGAPQYMKDYDYDDHQRFNPFFDLGAWHGHLLPDGPNTMGGFPGVALLTEEYINFMASNFDRLTVWQDGKKVDFTLEAYSIPGALVQKLTAKDVQVEMTLRFATPRTSLLETKITSNKPLDLVWDGELLEKLEAKEGKPLSDKTIAGEYPDYQRKISATRDGLKVTFGKVRATWDLLTSGESEYQVHKSLPVQTEINGNRFTSKAHINGSTTLYTTYSHLLTAQEVSKEQMQIRDILARPAFYLTASQQRWEEYLKKGLTNPDATPEQTRVAVKAIETLNGNWRSPGGAVKFNTVTPSVTGRWFSGNQTWPWDTWKQAFAMAHFNPDIAKENIRAVFSWQIQPGDSVRPQDVGFVPDLIAWNLSPERGGDGGNWNERNTKPSLAAWSVMEVYNVTQDKTWVAEMYPKLVAYHDWWLRNRDHNGNGVPEYGATRDKAHNTESGEMLFTVKKDSLRLSCTASGFTFDNYAIGWFRQAPGKEREGVSCISRSGRSTYYADSVKGRVTIAKEKNTVLLQMNDLQPDDTAVYYCAAGTVTVVGSACPSTARRLWGRGTQVTVSSHHHHHHEPEA
Regarding B1, the binding entry was “binds”.
